PubChem BioAssay AID1053208 | Peter MacCallum Cancer Centre – 2014
The whole screen tested about 17,000 reagents; shown is a random part of them. 788 of them (4.7%) count as active. 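Calls rest on z-score classes alone; an extra cut-off of viability at most 70% of control was not applied to them.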 Reagents against one gene are numbered here. Not all columns of the deposit are shown. No sequences are given here.

Test: 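Synthetic lethal interactions between gene loss and doxorubicin in osteosarcoma cells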 (primary screen)
Cells: mouse osteosarcoma cells, early-passage culture from an engineered mouse model of fibroblastic bone tumour
Reagent: siRNA pool against mouse genes, 40 nM
Duration: about 120 h (48 h before drug, then 72 h with drug)
Treatment: doxorubicin 100 nM for 72 h, roughly 30-40% inhibitory dose
Read-out: 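Viability read as ATP luminescence after 72 h of 100 nM doxorubicin or none, duplicate wells averaged, scaled to non-targeting siRNA, then expressed as robust z-scores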
Direction: viability z-score with doxorubicin: higher = more viable cells under doxorubicin; viability z-score without drug: higher = more viable cells with knock-down alone
Hit rule: 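a pool counts as active when its viability z-score with doxorubicin is -2 or below and its z-score without drug lies between -2 and 2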

Ago4 (argonaute RISC catalytic subunit 4) gave combined z-score class no change with or without drug; viability z-score with doxorubicin -1.8; viability z-score without drug 0.67; inactive. Dlg4 (discs large MAGUK scaffold protein 4) scored combined z-score class no change with or without drug; viability z-score with doxorubicin 1.91; viability z-score without drug -0.34; inactive. For Sybu (syntabulin (syntaxin-interacting)) #1 the deposit lists combined z-score class low cell count without drug only; viability z-score with doxorubicin -1.8; viability z-score without drug -2.02; inactive. With knock-down of Sybu (syntabulin (syntaxin-interacting)) #2, the screen gave combined z-score class no change with or without drug; viability z-score with doxorubicin -0.45; viability z-score without drug 0.34; inactive. For Foxb1 (forkhead box B1), the entry reads combined z-score class no change with or without drug; viability z-score with doxorubicin -0.67; viability z-score without drug 1.85; inactive. With knock-down of Clca3a2 (chloride channel accessory 3A2), the screen gave combined z-score class no change with or without drug; viability z-score with doxorubicin -1.91; viability z-score without drug -1.01; inactive.

Against Traf1 (TNF receptor-associated factor 1), the entry reads combined z-score class no change with or without drug; viability z-score with doxorubicin 1.01; viability z-score without drug 0.67; inactive. Depletion of Cux1 (cut-like homeobox 1) resulted in: combined z-score class no change with or without drug; viability z-score with doxorubicin 0.34; viability z-score without drug -0.51; inactive. After knock-down of Nrxn3 (neurexin III), the screen gave combined z-score class no change with or without drug; viability z-score with doxorubicin -0.9; viability z-score without drug 0.51; inactive. With knock-down of Sva (seminal vesicle antigen), the screen gave combined z-score class no change with or without drug; viability z-score with doxorubicin 1.57; viability z-score without drug -0.84; inactive. For Poldip2 (polymerase (DNA-directed), delta interacting protein 2), the values are combined z-score class no change with or without drug; viability z-score with doxorubicin 0.67; viability z-score without drug -0.17; inactive. After knock-down of Or4f47 (olfactory receptor family 4 subfamily F member 47), the screen gave combined z-score class no change with or without drug; viability z-score with doxorubicin -0.56; viability z-score without drug -0.84; inactive.

Against Mob1a (MOB kinase activator 1A) the deposit lists combined z-score class no change with or without drug; viability z-score with doxorubicin -0.45; viability z-score without drug 0.51; inactive. For Zfp641 (zinc finger protein 641) the deposit lists combined z-score class no change with or without drug; viability z-score with doxorubicin -0.45; viability z-score without drug 0.51; inactive. After knock-down of Drgx (dorsal root ganglia homeobox) the results were combined z-score class no change with or without drug; viability z-score with doxorubicin 0.9; viability z-score without drug 0.17; inactive. Against Fhl2 (four and a half LIM domains 2), the values are combined z-score class no change with or without drug; viability z-score with doxorubicin 0; viability z-score without drug 0.34; inactive. Ms4a10 (membrane-spanning 4-domains, subfamily A, member 10) gave combined z-score class no change with or without drug; viability z-score with doxorubicin -0.22; viability z-score without drug 0.17; inactive. Odf2l (outer dense fiber of sperm tails 2-like) gave combined z-score class no change with or without drug; viability z-score with doxorubicin 0.9; viability z-score without drug -1.18; inactive.

Saa4 (serum amyloid A 4) scored combined z-score class no change with or without drug; viability z-score with doxorubicin -1.35; viability z-score without drug -0.84; inactive. Depletion of Pcdhb22 (protocadherin beta 22) resulted in: combined z-score class high cell count with and without drug; viability z-score with doxorubicin 2.02; viability z-score without drug 2.53; inactive. With knock-down of Smim14 (small integral membrane protein 14) the results were combined z-score class no change with or without drug; viability z-score with doxorubicin 0.67; viability z-score without drug 0.51; inactive. Silencing of Allc (allantoicase) resulted in: combined z-score class no change with or without drug; viability z-score with doxorubicin 0; viability z-score without drug 0.17; inactive. With knock-down of Pik3r5 (phosphoinositide-3-kinase regulatory subunit 5) the results were combined z-score class no change with or without drug; viability z-score with doxorubicin -1.35; viability z-score without drug 0.17; inactive. With knock-down of Bpifb9a (BPI fold containing family B, member 9A), the record shows combined z-score class no change with or without drug; viability z-score with doxorubicin -0.56; viability z-score without drug -0.17; inactive.

For Cct6b (chaperonin containing TCP1 subunit 6B) the deposit lists combined z-score class no change with or without drug; viability z-score with doxorubicin 1.8; viability z-score without drug 1.85; inactive. With knock-down of Or5b3 (olfactory receptor family 5 subfamily B member 3) the results were combined z-score class no change with or without drug; viability z-score with doxorubicin -0.11; viability z-score without drug -0.51; inactive. Golph3 (golgi phosphoprotein 3) gave combined z-score class no change with or without drug; viability z-score with doxorubicin 1.12; viability z-score without drug 1.18; inactive. Ezh2 (enhancer of zeste 2 polycomb repressive complex 2 subunit) showed combined z-score class no change with or without drug; viability z-score with doxorubicin -1.91; viability z-score without drug 1.35; inactive.
